The values below come from PubChem BioAssay AID188 (DTP/NCI, 2004).

This experiment has as its system CD2F1 mice, nontumored, toxicity/survival. The experiment is described as follows: NCI In Vivo Anticancer Drug Screen. Data for tumor model Nontumored Animals (Toxicity Test) in CD2F1 (CDF1) mice.
Where [1] appears, read: dose: 2.0 mg/kg/injection, schedule: Q04DX003 (ip), vehicle: saline.
Setting [2] is: dose: 4.0 mg/kg/injection, schedule: Q04DX003 (ip), vehicle: saline.
The mark [3] stands for this setting: dose: 8.0 mg/kg/injection, schedule: Q01DX005 (ip), vehicle: saline.
Where [4] appears, read: dose: 8.0 mg/kg/injection, schedule: Q04DX003 (ip), vehicle: saline.
[5] abbreviates: dose: 1.0 mg/kg/injection, schedule: Q01DX001 (ip), vehicle: water.
Setting [6] is: dose: 10.0 mg/kg/injection, schedule: Q01DX001 (ip), vehicle: water.
[7] abbreviates: dose: 100.0 mg/kg/injection, schedule: Q01DX001 (ip), vehicle: water.

Shown are survivors of the treated group in tumour-free mice. Counts of survivors are from the toxicity check (mostly the fifth day) where no day follows; animals may have died later. Schedule codes are those of the source, read here as Q, the interval in days (D) or hours (H), X, the number of doses. Additions like (4×) count equal records among those shown. Some doses were run more than once; their values stand side by side, smallest first.

`N[C@@H](Cc1ccc(N(CCCl)CCCl)cc1)C(=O)O`: the survivor count by setting is: (dose: 0.5 mg/kg/injection, schedule: Q04DX003 (ip), vehicle: saline) 5 of 5; (dose: 1.0 mg/kg/injection, schedule: Q04DX003 (ip), vehicle: saline) 5 of 5; (dose: 1.2 mg/kg/injection, schedule: Q04DX003 (ip), vehicle: saline) 5 of 5; (dose: 1.7 mg/kg/injection, schedule: Q04DX003 (ip), vehicle: saline) 8 of 8; (dose: 1.8 mg/kg/injection, schedule: Q04DX003 (ip), vehicle: saline) 5 of 5; under setting [1], 5 of 5. The survivor count was 5 of 5 (dose: 2.4 mg/kg/injection, schedule: Q04DX003 (ip), vehicle: saline); 8 of 8 (dose: 2.5 mg/kg/injection, schedule: Q04DX003 (ip), vehicle: saline); 5 of 5 (dose: 2.7 mg/kg/injection, schedule: Q04DX003 (ip), vehicle: saline); 10 of 10 (dose: 3.6 mg/kg/injection, schedule: Q01DX005 (ip), vehicle: saline); 5 of 5 (dose: 3.6 mg/kg/injection, schedule: Q04DX003 (ip), vehicle: saline); 8 of 8 (dose: 3.7 mg/kg/injection, schedule: Q04DX003 (ip), vehicle: saline). Further, the survivor count runs as follows: under setting [2], 5 of 5; (dose: 5.3 mg/kg/injection, schedule: Q04DX003 (ip), vehicle: saline) 5 of 5; (dose: 5.4 mg/kg/injection, schedule: Q01DX005 (ip), vehicle: saline) 10 of 10; (dose: 5.6 mg/kg/injection, schedule: Q04DX003 (ip), vehicle: saline) 8 of 8; (dose: 6.0 mg/kg/injection, schedule: Q04DX003 (ip), vehicle: saline) 5 of 5; under setting [3], 9 of 9. Besides, the survivor count is, setting by setting: under setting [4], 5 of 5; (dose: 8.4 mg/kg/injection, schedule: Q04DX003 (ip), vehicle: saline) 8 of 8; (dose: 10.0 mg/kg/injection, schedule: Q01DX001 (ip), vehicle: acid diluted with saline) 10 of 10; (dose: 10.0 mg/kg/injection, schedule: Q01DX001 (ip), vehicle: saline) 9 of 10 and 10 of 10 (2×); (dose: 12.0 mg/kg/injection, schedule: Q01DX005 (ip), vehicle: saline) 10 of 10; (dose: 12.0 mg/kg/injection, schedule: Q04DX003 (ip), vehicle: saline) 5 of 5. In addition, the survivor count by setting is: (dose: 12.6 mg/kg/injection, schedule: Q04DX003 (ip), vehicle: saline) 8 of 8; (dose: 15.0 mg/kg/injection, schedule: Q01DX001 (ip), vehicle: acid diluted with saline) 9 of 10; (dose: 15.0 mg/kg/injection, schedule: Q01DX001 (ip), vehicle: saline) 10 of 10 (2×) and 8 of 8; (dose: 18.9 mg/kg/injection, schedule: Q04DX003 (ip), vehicle: saline) 8 of 8; (dose: 20.0 mg/kg/injection, schedule: Q01DX001 (ip), vehicle: acid diluted with saline) 9 of 9; (dose: 20.0 mg/kg/injection, schedule: Q01DX001 (ip), vehicle: saline) 10 of 10 (2×). The survivor count (dose: 22.5 mg/kg/injection, schedule: Q01DX001 (ip), vehicle: saline) is reported as 10 of 10.
`COc1ccc2c(c1OC(C)=O)-c1cc(OC(C)=O)cc3c1C(C2)N(C(=O)CCl)CC3` (configuration not stated): the survivor count is, setting by setting: (dose: 1.0 mg/kg/injection, schedule: Q01DX001 (ip), vehicle: DMSO) 2 of 2; (dose: 10.0 mg/kg/injection, schedule: Q01DX001 (ip), vehicle: DMSO) 2 of 2; (dose: 100.0 mg/kg/injection, schedule: Q01DX001 (ip), vehicle: DMSO) 2 of 2.
For `Cc1ccc(-c2nc(N)nc(N)n2)cc1`, the survivor count is 2 of 2 under setting [5], 2 of 2 under setting [6] and 2 of 2 under setting [7].
For the molecule `O/N=c1/ccn(O)c2ccccc12`, the survivor count is, setting by setting: (dose: 0.25 mg/kg/injection, schedule: Q03HX024 (ip), vehicle: saline) 8 of 8; (dose: 0.5 mg/kg/injection, schedule: Q03HX008 (ip), vehicle: saline) 8 of 8; (dose: 0.5 mg/kg/injection, schedule: Q03HX016 (ip), vehicle: saline) 8 of 8; (dose: 0.5 mg/kg/injection, schedule: Q03HX024 (ip), vehicle: saline) 8 of 8; (dose: 1.0 mg/kg/injection, schedule: Q01DX005 (ip), vehicle: saline) 8 of 8; (dose: 1.0 mg/kg/injection, schedule: Q01DX009 (ip), vehicle: saline) 8 of 8. In addition, the survivor count is, setting by setting: (dose: 1.0 mg/kg/injection, schedule: Q03HX008 (ip), vehicle: saline) 8 of 8; (dose: 1.0 mg/kg/injection, schedule: Q03HX016 (ip), vehicle: saline) 8 of 8; (dose: 1.0 mg/kg/injection, schedule: Q03HX024 (ip), vehicle: saline) 8 of 8; (dose: 2.0 mg/kg/injection, schedule: Q01DX005 (ip), vehicle: saline) 8 of 8; (dose: 2.0 mg/kg/injection, schedule: Q01DX009 (ip), vehicle: saline) 8 of 8; (dose: 2.0 mg/kg/injection, schedule: Q03HX008 (ip), vehicle: saline) 7 of 8. Besides, the survivor count (dose: 2.0 mg/kg/injection, schedule: Q03HX016 (ip), vehicle: saline) is on record as 8 of 8; the survivor count (dose: 2.0 mg/kg/injection, schedule: Q03HX024 (ip), vehicle: saline) is 8 of 8; the survivor count under setting [1] is on record as 8 of 8; the survivor count (dose: 4.0 mg/kg/injection, schedule: Q01DX001 (ip), vehicle: saline) is recorded as 8 of 8; the survivor count (dose: 4.0 mg/kg/injection, schedule: Q01DX005 (ip), vehicle: saline) is listed as 8 of 8; the survivor count (dose: 4.0 mg/kg/injection, schedule: Q01DX009 (ip), vehicle: saline) is reported as 8 of 8. For the same molecule, the survivor count was 6 of 8 (dose: 4.0 mg/kg/injection, schedule: Q03HX008 (ip), vehicle: saline); 5 of 8 (dose: 4.0 mg/kg/injection, schedule: Q03HX016 (ip), vehicle: saline); 3 of 8 (dose: 4.0 mg/kg/injection, schedule: Q03HX024 (ip), vehicle: saline); 8 of 8 under setting [2]; 8 of 8 (dose: 4.0 mg/kg/injection, schedule: Q08DX002 (ip), vehicle: saline); 8 of 8 (dose: 8.0 mg/kg/injection, schedule: Q01DX001 (ip), vehicle: saline). For the same molecule, the survivor count under setting [3] is 6 of 8; the survivor count (dose: 8.0 mg/kg/injection, schedule: Q01DX009 (ip), vehicle: saline) is listed as 5 of 8; the survivor count (dose: 8.0 mg/kg/injection, schedule: Q03HX008 (ip), vehicle: saline) was 4 of 8; the survivor count under setting [4] is given as 8 of 8; the survivor count (dose: 8.0 mg/kg/injection, schedule: Q08DX002 (ip), vehicle: saline) is reported as 8 of 8; the survivor count (dose: 16.0 mg/kg/injection, schedule: Q01DX001 (ip), vehicle: saline) is 8 of 8. The survivor count (dose: 16.0 mg/kg/injection, schedule: Q01DX005 (ip), vehicle: saline) was 0 of 8; the survivor count (dose: 16.0 mg/kg/injection, schedule: Q04DX003 (ip), vehicle: saline) was 8 of 8; the survivor count (dose: 16.0 mg/kg/injection, schedule: Q08DX002 (ip), vehicle: saline) is recorded as 8 of 8; the survivor count (dose: 32.0 mg/kg/injection, schedule: Q01DX001 (ip), vehicle: saline) is listed as 4 of 8; the survivor count (dose: 32.0 mg/kg/injection, schedule: Q04DX003 (ip), vehicle: saline) is 7 of 8; the survivor count (dose: 32.0 mg/kg/injection, schedule: Q08DX002 (ip), vehicle: saline) was 6 of 8. Further, under “dose: 64.0 mg/kg/injection, schedule: Q01DX001 (ip), vehicle: saline”, the survivor count was 1 of 8.
Consider `Nc1nc(N)c(N=Nc2cccc3ccccc23)c(N)n1`, for which the survivor count under setting [5] is given as 2 of 2, the survivor count under setting [6] was 2 of 2 and the survivor count under setting [7] is listed as 2 of 2.
